# Reference: PMC10093212, “Development of Cyclic Peptides Targeting the Epidermal Growth Factor Receptor in Mesenchymal Triple-Negative Breast Cancer Subtype” (Cells, 2023)
# Bridge positions count the residues as written; N and C are the ends. Ends that are not written are not given here.
# Tested on: EGFR overexpressed in MDA-MB-231 cells
# Assay: Phage display screening (C7C library), occurrence frequency of selected phage clones
# Set-up: species or system human
# Settings: 35 plaques from the third round of selection
Sequence,"occurrence frequency of selected phage clones, %","occurrence frequency of selected phage clones, Ratio"
"CEKMVATHC (disulfide 1-9 (inferred)) [01cys_EGFR, Phage-display selected cyclic EGFR peptide ligand, one disulphide bond, amidated C-terminus]",51.4%,18/35
"CGTNPIKKC (disulfide 1-9 (inferred)) [30cys_EGFR, Peptide insert of selected M13 phage clone, tested only as phage]",8.5%,3/35
"CPSDEHHTC (disulfide 1-9 (inferred)) [06cys_EGFR, Phage-display selected cyclic EGFR peptide ligand, one disulphide bond, amidated C-terminus]",20%,7/35
"CSRSMDSTC (disulfide 1-9 (inferred)) [04cys_EGFR, Peptide insert of selected M13 phage clone, tested only as phage]",20%,7/35
